# In doi:10.1101/798603:
# The chains behind the UniProt entries cited, without tags or fusion partners.
# UniProt Q01159: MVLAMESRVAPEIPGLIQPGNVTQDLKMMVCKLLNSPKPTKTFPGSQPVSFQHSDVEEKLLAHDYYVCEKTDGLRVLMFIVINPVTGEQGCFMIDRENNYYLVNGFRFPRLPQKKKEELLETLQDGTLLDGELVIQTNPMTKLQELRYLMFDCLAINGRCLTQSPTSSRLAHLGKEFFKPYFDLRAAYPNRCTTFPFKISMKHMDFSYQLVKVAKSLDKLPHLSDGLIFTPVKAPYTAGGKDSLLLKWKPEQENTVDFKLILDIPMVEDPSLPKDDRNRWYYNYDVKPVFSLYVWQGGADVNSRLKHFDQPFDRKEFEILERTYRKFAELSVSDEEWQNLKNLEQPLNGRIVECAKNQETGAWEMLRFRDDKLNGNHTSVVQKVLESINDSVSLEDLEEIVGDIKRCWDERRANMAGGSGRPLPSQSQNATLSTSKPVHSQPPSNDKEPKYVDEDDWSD
# UniProt Q05775: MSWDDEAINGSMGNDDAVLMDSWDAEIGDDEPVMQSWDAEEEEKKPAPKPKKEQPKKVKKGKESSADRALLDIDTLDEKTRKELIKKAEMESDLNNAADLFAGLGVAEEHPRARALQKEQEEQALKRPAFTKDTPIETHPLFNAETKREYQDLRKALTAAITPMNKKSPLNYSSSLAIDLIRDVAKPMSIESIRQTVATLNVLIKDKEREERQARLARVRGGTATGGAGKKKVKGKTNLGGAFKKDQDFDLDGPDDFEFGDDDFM
# UniProt P35189: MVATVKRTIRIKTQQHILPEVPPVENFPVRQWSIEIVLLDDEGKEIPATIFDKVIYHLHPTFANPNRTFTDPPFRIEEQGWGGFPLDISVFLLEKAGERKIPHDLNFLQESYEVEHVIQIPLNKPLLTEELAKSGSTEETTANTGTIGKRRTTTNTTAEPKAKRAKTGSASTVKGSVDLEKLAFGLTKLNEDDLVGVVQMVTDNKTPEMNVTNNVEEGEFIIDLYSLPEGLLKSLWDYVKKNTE
# Results are given in words; binding and its absence hold for the method and conditions named. Binding seen in cells or lysates may run through a third protein. These calls come from enrichment with a bait or labelling near it, and not all partners need be listed. No binding means not detected with the bait.
# T1: Rpb4-TAP (S. cerevisiae) (UniProt P20433)
# T1 sequence: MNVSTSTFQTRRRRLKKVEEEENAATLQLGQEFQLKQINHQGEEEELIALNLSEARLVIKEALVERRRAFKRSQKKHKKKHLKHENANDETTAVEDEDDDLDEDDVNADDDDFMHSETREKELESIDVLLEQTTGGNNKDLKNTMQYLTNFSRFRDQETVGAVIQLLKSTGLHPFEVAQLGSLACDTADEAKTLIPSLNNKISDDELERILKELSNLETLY
# Target: T1, Rpb4-TAP (S. cerevisiae)
# Assay: affinity purification with mass spectrometry
row,Molecule,binding
1,Ceg1 (from UniProt Q01159 1-459) (enzyme),binds
2,Hcr1 (from UniProt Q05775 1-265),no binding
3,Taf14 (from UniProt P35189 1-244),binds
4,"Tfg1 (protein, UniProt P41895 1-735) MSRRNPPGSRNGGGPTNASPFIKRDRMRRNFLRMRMGQNGSNSSSPGVPNGDNSRGSLVKKDDPEYAEEREKMLLQIGVEADAGRSNVKVKDEDPNEYNEFPLRAIPKEDLENMRTHLLKFQSKKKINPVTDFHLPVRLHRKDTRNLQFQLTRAEIVQRQKEISEYKKKAEQERSTPNSGGMNKSGTVSLNNTVKDGSQTPTVDSVTKDNTANGVNSSIPTVTGSSVPPASPTTVSAVESNGLSNGSTSAANGLDGNASTANLANGRPLVTKLEDAGPAEDPTKVGMVKYDGKEVTNEPEFEEGTMDPLADVAPDGGGRAKRGNLRRKTRQLKVLDENAKKLRFEEFYPWVMEDFDGYNTWVGSYEAGNSDSYVLLSVEDDGSFTMIPADKVYKFTARNKYATLTIDEAEKRMDKKSGEVPRWLMKHLDNIGTTTTRYDRTRRKLKAVADQQAMDEDDRDDNSEVELDYDEEFADDEEAPIIDGNEQENKESEQRIKKEMLQANAMGLRDEEAPSENEEDELFGEKKIDEDGERIKKALQKTELAALYSSDENEINPYLSESDIENKENESPVKKEEDSDTLSKSKRSSPKKQQKKATNAHVHKEPTLRVKSIKNCVIILKGDKKILKSFPEGEWNPQTTKAVDSSNNASNTVPSPIKQEEGLNSTVAEREETPAPTITEKDIIEAIGDGKVNIKEFGKFIRRKYPGAENKKLMFAIVKKLCRKVGNDHMELKKE",binds
5,"Tfg2 (protein, UniProt P41896 1-400) MSSGSAGAPALSNNSTNSVAKEKSGNISGDEYLSQEEEVFDGNDIENNETKVYEESLDLDLERSNRQVWLVRLPMFLAEKWRDRNNLHGQELGKIRINKDGSKITLLLNENDNDSIPHEYDLELTKKVVENEYVFTEQNLKKYQQRKKELEADPEKQRQAYLKKQEREEELKKKQQQQKRRNNRKKFNHRVMTDRDGRDRYIPYVKTIPKKTAIVGTVCHECQVMPSMNDPNYHKIVEQRRNIVKLNNKERITTLDETVGVTMSHTGMSMRSDNSNFLKVGREKAKSNIKSIRMPKKEILDYLFKLFDEYDYWSLKGLKERTRQPEAHLKECLDKVATLVKKGPYAFKYTLRPEYKKLKEEERKATLGELADEQTGSAGDNAQGDAEADLEDEIEMEDVV",binds
6,"Sua7 (protein, UniProt P29055 1-345) MMTRESIDKRAGRRGPNLNIVLTCPECKVYPPKIVERFSEGDVVCALCGLVLSDKLVDTRSEWRTFSNDDHNGDDPSRVGEASNPLLDGNNLSTRIGKGETTDMRFTKELNKAQGKNVMDKKDNEVQAAFAKITMLCDAAELPKIVKDCAKEAYKLCHDEKTLKGKSMESIMAASILIGCRRAEVARTFKEIQSLIHVKTKEFGKTLNIMKNILRGKSEDGFLKIDTDNMSGAQNLTYIPRFCSHLGLPMQVTTSAEYTAKKCKEIKEIAGKSPITIAVVSIYLNILLFQIPITAAKVGQTLQVTEGTIKSGYKILYEHRDKLVDPQLIANGVVSLDNLPGVEKK",binds
7,"Iwr1 (protein, UniProt Q07532 1-353) MSTISTTTAPEFIRVKRRRDEDSVQALLIDEGKRVKKQKFIFKLSKTVSSESYQSEQESSTPLLKLAHEDHRHFVLEQRKKSRRDSDDEKSQQRLAAEGSTVDDDGLPPEINQMVNDYLKLNKGVEKTERKKPSRKYFTGDSAKIASLPSLDYVFDIYHLEKIHDDEVARYNNEKNIGFVKIIEHIDLALDEESDPNEARSDDEDSNDENYYQNDYPEDEDDDRSILFGSEGEDIAALGEEIVIGVNKSRFSSWNDDKIQGSNGYHDVEEEYGDLFNRLGGKSDVLKSINSSNFIDLDGQEGEIEISDNEDDSDEGDDIEYPRNEFFPTDVDDPLAHHRDRIFHQLQKKINRS",binds
